In PubChem BioAssay AID212 (DTP/NCI, 2004):
The list is a part of this screen's results and no random one: it gathers tests that were run many times, whatever their T/C, doses with no T/C, and many T/C values between a quarter and a half above the control. Further doses and runs are listed elsewhere. T/C: endpoint of the treated group in % of that of the vehicle group. Schedules are NCI's codes, taken here to give the interval after Q, in days (D) or hours (H), and the number of doses after X. Some T/C values carry the count of animals alive at the toxicity check (mostly the fifth day); where none is given, no animal had died by that day. Some doses were run more than once; their values stand side by side, smallest first. Marks such as (2×) give the number of equal values in this list. Some entries give survivors of the animals treated and no T/C: the source files T/C as zero there, which appears to mark a toxic dose or a test without result, not a measured value. Counts of survivors are from the toxicity check (mostly the fifth day) where no day follows; animals may have died later. For survival time, the PubChem record calls one and a half times the control and up active, and a quarter to a half above the control has no call in these data; cut-offs in other NCI protocols can differ.

Tested on: BDF1 mice, colon carcinoma 38 sc, T/C %
Experiment: NCI In Vivo Anticancer Drug Screen. Data for tumor model Colon Carcinoma 38 (subcutaneous) in B6D2F1 (BDF1) mice
Procedure, shortened: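 Transplantable tumor in mice; compound-treated vs vehicle-dosed controls. Measured survival or tumor size; value = T ÷ C.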

CN(C)CCCNc1c2ccccc2nc2cccc([N+](=O)[O-])c12
T/C (T/C endpoint: median tumor weight (est.), dose: 0.06 mg/kg/injection, schedule: Q07DX002 (ip), vehicle: saline, evaluated on day 20, higher T/C = larger tumour): 131 % of control
T/C (T/C endpoint: median tumor weight (est.), dose: 0.12 mg/kg/injection, schedule: Q07DX002 (ip), vehicle: saline, evaluated on day 20, higher T/C = larger tumour): 92 (2×), 92 [9 of 10 alive on day 20], 97 [7 of 10 alive on day 20], 98, 101, 101 [9 of 10 alive on day 20], 108, 111, 125 % of control (2×)
survivor count (T/C endpoint: median tumor weight (est.), dose: 0.12 mg/kg/injection, schedule: Q07DX002 (ip), vehicle: saline, higher T/C = larger tumour): 1 of 10 on day 20
T/C (T/C endpoint: median tumor weight (est.), dose: 0.25 mg/kg/injection, schedule: Q07DX002 (ip), vehicle: saline, evaluated on day 20, higher T/C = larger tumour): 68 [7 of 10 alive on day 20], 75, 76 [7 of 10 alive on day 20], 83 [7 of 10 alive on day 20], 89, 107, 110, 118 [7 of 10 alive on day 20], 156 % of control [9 of 10 alive on day 20]
survivor count (T/C endpoint: median tumor weight (est.), dose: 0.25 mg/kg/injection, schedule: Q07DX002 (ip), vehicle: saline, higher T/C = larger tumour): 0 of 10 on day 20, 4 of 10 on day 20, 6 of 10 on day 20
T/C (T/C endpoint: median tumor weight (est.), dose: 0.5 mg/kg/injection, schedule: Q07DX002 (ip), vehicle: saline, evaluated on day 20, higher T/C = larger tumour): 72, 86, 95 % of control [8 of 10 alive on day 20]
survivor count (T/C endpoint: median tumor weight (est.), dose: 0.5 mg/kg/injection, schedule: Q07DX002 (ip), vehicle: saline, higher T/C = larger tumour): 0 of 10 on day 20, 1 of 10 on day 20, 2 of 10 on day 20, 4 of 10 on day 20, 6 of 10 on day 20
T/C (T/C endpoint: median tumor weight (est.), dose: 1.0 mg/kg/injection, schedule: Q07DX002 (ip), vehicle: saline, evaluated on day 20, higher T/C = larger tumour): 69 % of control
survivor count (T/C endpoint: median tumor weight (est.), dose: 1.0 mg/kg/injection, schedule: Q07DX002 (ip), vehicle: saline, higher T/C = larger tumour): 0 of 10 on day 20 and 1 of 10 on day 20

C#CCN(Cc1ccc2nc(N)[nH]c(=O)c2c1)c1ccc(C(=O)NC(CCC(=O)O)C(=O)O)cc1 (centres undefined)
survivor count (T/C endpoint: median tumor weight (est.), dose: 800.0 mg/kg/injection, schedule: Q07DX002 (ip), vehicle: sodium bicarbonate, higher T/C = larger tumour): 0 of 10 on day 20

COc1cccc2c1C(=O)c1c(O)c3c(c(O)c1C2=O)C[C@@](O)(C(C)=O)C[C@@H]3OC1CC(N(C)C)C(O)C(C)O1 (some centres undefined)
T/C (T/C endpoint: median survival time, dose: 16.0 mg/kg/injection, schedule: Q07DX002 (iv), vehicle: saline, higher T/C = longer survival): 131 % of control
T/C (T/C endpoint: median survival time, dose: 25.0 mg/kg/injection, schedule: Q07DX002 (iv), vehicle: saline, higher T/C = longer survival): 147 % of control
survivor count (T/C endpoint: median survival time, dose: 39.0 mg/kg/injection, schedule: Q07DX002 (iv), vehicle: saline, higher T/C = longer survival): 1 of 10 on day 92
T/C (T/C endpoint: median tumor weight (est.), dose: 1.12 mg/kg/injection, schedule: Q07DX002 (ip), vehicle: saline, evaluated on day 20, higher T/C = larger tumour): 131 % of control [8 of 10 alive on day 20]
T/C (T/C endpoint: median tumor weight (est.), dose: 2.25 mg/kg/injection, schedule: Q07DX002 (ip), vehicle: saline, evaluated on day 20, higher T/C = larger tumour): 125 % of control [9 of 10 alive on day 20]
T/C (T/C endpoint: median tumor weight (est.), dose: 4.5 mg/kg/injection, schedule: Q07DX002 (ip), vehicle: saline, evaluated on day 20, higher T/C = larger tumour): 28, 78, 82, 105 % of control
T/C (T/C endpoint: median tumor weight (est.), dose: 9.0 mg/kg/injection, schedule: Q07DX002 (ip), vehicle: saline, evaluated on day 20, higher T/C = larger tumour): 35, 69, 73, 88 % of control
survivor count (T/C endpoint: median tumor weight (est.), dose: 36.0 mg/kg/injection, schedule: Q07DX002 (ip), vehicle: saline, higher T/C = larger tumour): 0 of 10 on day 20, 1 of 10 on day 20, 2 of 10 on day 20

CNc1cccnc1/C=N/NC(N)=S
T/C (T/C endpoint: median tumor weight (est.), dose: 50.0 mg/kg/injection, schedule: Q07DX002 (ip), vehicle: saline with Tween-80, evaluated on day 20, higher T/C = larger tumour): 138 % of control
survivor count (T/C endpoint: median tumor weight (est.), dose: 800.0 mg/kg/injection, schedule: Q07DX002 (ip), vehicle: saline with Tween-80, higher T/C = larger tumour): 1 of 10 on day 20

CCN1/C(=C/C=C/C=C\C=C\c2sc3ccc4ccccc4c3[n+]2CC)Sc2ccc3ccccc3c21
T/C (T/C endpoint: median tumor weight (est.), dose: 1.25 mg/kg/injection, schedule: Q07DX002 (ip), vehicle: saline with Tween-80, evaluated on day 20, higher T/C = larger tumour): 149 % of control [9 of 10 alive on day 20]
survivor count (T/C endpoint: median tumor weight (est.), dose: 40.0 mg/kg/injection, schedule: Q07DX002 (ip), vehicle: saline with Tween-80, higher T/C = larger tumour): 5 of 10 on day 20

O=c1ccc2ccccc2o1
survivor count (T/C endpoint: median tumor weight (est.), dose: 400.0 mg/kg/injection, schedule: Q07DX002 (ip), vehicle: Klucel (hydroxypropylcellulose) (HPC), higher T/C = larger tumour): 0 of 10 on day 20
survivor count (T/C endpoint: median tumor weight (est.), dose: 800.0 mg/kg/injection, schedule: Q07DX002 (ip), vehicle: Klucel (hydroxypropylcellulose) (HPC), higher T/C = larger tumour): 0 of 10 on day 20
